The other results are listed elsewhere or left out. Repeats are few or missing, and single values can be far off.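 Imaging used 1,536-well plates; nuclei positive for cleaved PARP by antibody were divided by total DNA-stained nuclei to yield the apoptosis fraction. Doses for screening kept most cells viable, and cell lines differ markedly in resting and induced cleaved-PARP levels.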
Columns and labels:
Assay in all cases: cleaved PARP positive nuclei fraction relative to DMSO control; melanoma cells; higher = more apoptosis
Settings in all cases: library dose: low library concentration; 72 h
COLO792 = test system: COLO792
COLO800 = test system: COLO800
COLO829 = test system: COLO829
G361 = test system: G361
IPC-298 = test system: IPC-298
IST-MEL1 = test system: IST-MEL1
LB2518-MEL = test system: LB2518-MEL
LOXIMVI = test system: LOXIMVI
MEL-HO = test system: MEL-HO
MZ2-MEL = test system: MZ2-MEL
MeWo = test system: MeWo
RPMI7951 = test system: RPMI7951
RVH-421 = test system: RVH-421
SkMel28 = test system: SkMel28
SkMel2 = test system: SkMel2
SkMel30 = test system: SkMel30
SkMel5 = test system: SkMel5
UACC257 = test system: UACC257
UACC62 = test system: UACC62

| SMILES | cleaved PARP positive nuclei fraction (COLO792) [%] | cleaved PARP positive nuclei fraction (COLO800) [%] | cleaved PARP positive nuclei fraction (COLO829) [%] | cleaved PARP positive nuclei fraction (G361) [%] | cleaved PARP positive nuclei fraction (IPC-298) [%] | cleaved PARP positive nuclei fraction (IST-MEL1) [%] | cleaved PARP positive nuclei fraction (LB2518-MEL) [%] | cleaved PARP positive nuclei fraction (LOXIMVI) [%] | cleaved PARP positive nuclei fraction (MEL-HO) [%] | cleaved PARP positive nuclei fraction (MZ2-MEL) [%] | cleaved PARP positive nuclei fraction (MeWo) [%] | cleaved PARP positive nuclei fraction (RPMI7951) [%] | cleaved PARP positive nuclei fraction (RVH-421) [%] | cleaved PARP positive nuclei fraction (SkMel28) [%] | cleaved PARP positive nuclei fraction (SkMel2) [%] | cleaved PARP positive nuclei fraction (SkMel30) [%] | cleaved PARP positive nuclei fraction (SkMel5) [%] | cleaved PARP positive nuclei fraction (UACC257) [%] | cleaved PARP positive nuclei fraction (UACC62) [%] |
| --- | --- | --- | --- | --- | --- | --- | --- | --- | --- | --- | --- | --- | --- | --- | --- | --- | --- | --- | --- |
| O=C(Nc1cc(C(F)(F)F)cc(C(F)(F)F)c1)c1cc(Cl)ccc1O + NC(=O)Nc1cc(-c2cccc(F)c2)sc1C(=O)N[C@H]1CCCNC1 [AZD7762] (first compound 0.016 µM, partner dose 0.02 µM) | 55.2 | 80.6 | 43.3 | 35 | 69 | 252 | 40.5 | 119 | 87 | 80.6 | 54.8 | 118 | 88.9 | 129 | 73.1 | 47.6 | 41.3 | 179 | 147 |
| Cc1cc(Nc2cc(N3CCN(C)CC3)nc(Sc3ccc(NC(=O)C4CC4)cc3)n2)n[nH]1 [Tozasertib] + CC1(C)NC(=O)N(c2ccc([N+](=O)[O-])c(C(F)(F)F)c2)C1=O [nilutamide] (first compound 0.006 µM, partner dose 1 µM) | 108 | 59.4 | 109 | 44.6 | 135 | 40.2 | 104 | 63.9 | 425 | 52.6 | 338 | 49 | 27.1 | 357 | 85.4 | 66.4 | 71.1 | 123 | 128 |
| N#CC[C@H](C1CCCC1)n1cc(-c2ncnc3[nH]ccc23)cn1 [ruxolitinib] + CO[C@@H]1[C@H](N(C)C(=O)c2ccccc2)C[C@H]2O[C@]1(C)n1c3ccccc3c3c4c(c5c6ccccc6n2c5c31)C(=O)NC4 [Midostaurin] (first compound 1 µM, partner dose 0.08 µM) | 203 | 57.5 | 106 | 157 | 89.3 | 279 | 86.6 | 59 | 36.2 | 152 | 180 | 183 | 121 | 87.8 | 71.4 | 321 | 75.2 | 108 | 118 |
| COc1cc([C@@H]2c3cc4c(cc3[C@@H](O[C@@H]3O[C@@H]5CO[C@@H](C)O[C@H]5[C@H](O)[C@H]3O)[C@H]3COC(=O)[C@H]23)OCO4)cc(OC)c1O [etoposide] + CC(C)(C)c1cnc(CSc2cnc(NC(=O)C3CCNCC3)s2)o1 [SNS-032] (first compound 0.02 µM, partner dose 0.01 µM) | 110 | 83.8 | 122 | 82.8 | 30.9 | 102 | 150 | 175 | 31.1 | 188 | 66.2 | 157 | 36.7 | 65.2 | 99.6 | 64.7 | 52 | 120 | 46.3 |
| CCCCCCCCCCCCCCCCCCOP(=O)([O-])OC1CC[N+](C)(C)CC1 [Perifosine] + OCCn1cc(-c2cnc3nnn(Cc4ccc5ncccc5c4)c3n2)cn1 [PF04217903] (first compound 0.4 µM, partner dose 1 µM) | 275 | 83.1 | 143 | 136 | 97.2 | 53.9 | 238 | 177 | 41.1 | 345 | 119 | 227 | 123 | 99.4 | 169 | 83.9 | 109 | 84.5 | 54 |
| Cc1cc(Nc2cc(N3CCN(C)CC3)nc(Sc3ccc(NC(=O)C4CC4)cc3)n2)n[nH]1 [Tozasertib] + NC(=O)Nc1cc(-c2cccc(F)c2)sc1C(=O)N[C@H]1CCCNC1 [AZD7762] (first compound 0.006 µM, partner dose 0.02 µM) | 114 | 23.5 | 91.1 | 128 | 87.1 | 96.6 | 41 | 811 | 66.3 | 53.9 | 142 | 63.8 | 38 | 57.7 | 207 | 133 | 130 | 109 | 59 |
| Cc1cn(-c2cc(NC(=O)c3ccc(C)c(Nc4nccc(-c5cccnc5)n4)c3)cc(C(F)(F)F)c2)cn1 [nilotinib] + COc1cc(Nc2ncc(F)c(Nc3ccc4c(n3)NC(=O)C(C)(C)O4)n2)cc(OC)c1OC [Tamatinib] (first compound 0.2 µM, partner dose 0.4 µM) | 70.6 | 127 | 82.2 | 264 | 99.4 | 21.9 | 288 | 228 | 332 | 80.6 | 382 | 49.6 | 51.5 | 107 | 236 | 77.5 | 359 | 240 | 183 |
| O=c1[nH]nc(Sc2ncc([N+](=O)[O-])s2)n1-c1ccc2c(c1)OCCO2 + CC(C)(C)c1cnc(CSc2cnc(NC(=O)C3CCNCC3)s2)o1 [SNS-032] (first compound 0.2 µM, partner dose 0.01 µM) | 68 | 106 | 71.3 | 64.3 | 28.3 | 101 | 100 | 54.4 | 62.9 | 127 | 95.4 | 147 | 133 | 61.5 | 159 | 240 | 61.3 | 99.1 | 83.4 |
| O=c1[nH]nc(Sc2ncc([N+](=O)[O-])s2)n1-c1ccc2c(c1)OCCO2 + O=C(O)c1ccc(-c2c[nH]c3ncc(-c4ccccc4)cc23)cc1C1CCCC1 [GSK650394] (first compound 0.2 µM, partner dose 0.16 µM) | 81.1 | 128 | 57.5 | 163 | 45.3 | 161 | 145 | 123 | 72.2 | 130 | 34.3 | 79.2 | 77.6 | 80.4 | 68.2 | 61.2 | 66.7 | 69.8 | 200 |
| CC[C@]1(O)C[C@H]2CN(CCc3c([nH]c4ccccc34)[C@@](C(=O)OC)(c3cc4c(cc3OC)N(C=O)[C@H]3[C@@](O)(C(=O)OC)[C@H](OC(C)=O)[C@]5(CC)C=CCN6CC[C@]43[C@@H]65)C2)C1 [vincristine] + C[C@@H]1CCN(C(=O)CC#N)C[C@@H]1N(C)c1ncnc2[nH]ccc12 [CP690550] (first compound 0.0001 µM, partner dose 1 µM) | 81.4 | 86.3 | 116 | 189 | 80.5 | 68.5 | 62.4 | 304 | 40.4 | 122 | 108 | 127 | 43.7 | 82.4 | 128 | 104 | 87.1 | 184 | 117 |
| Cc1ccc(Nc2nccc(N(C)c3ccc4c(C)n(C)nc4c3)n2)cc1S(N)(=O)=O [Pazopanib] + OCCn1cc(-c2cnc3nnn(Cc4ccc5ncccc5c4)c3n2)cn1 [PF04217903] (first compound 0.4 µM, partner dose 1 µM) | 111 | 61.7 | 61.9 | 92.6 | 57.9 | 60.1 | 225 | 108 | 68 | 40 | 47.2 | 173 | 101 | 77.2 | 122 | 70.6 | 69.2 | 77.5 | 145 |
